The values below come from the supplement of paper PMC4299490.

± gives the standard deviation of the averaged measurements. This is a noisy data set.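 Each ligand was tested at three doses, and effects were judged against wells given only the basal cytokines. TGFB1 at 10 ng/ml served as a negative control and SR1 as a positive control for HSC expansion.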

In assay [1] the test system is human umbilical cord blood Lin-RholowCD34+CD38-CD45RA-CD49f+ HSC-enriched cells. As to the kind of experiment: number of CD34- mature cells per well on day 7 (from 40 seeded cells); higher = more mature cell output. The settings on record: culture time: 7 days, basal cytokines: 100 ng/ml SCF + 50 ng/ml THPO + 100 ng/ml FLT3LG. The method, then: (§1)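 Forty human umbilical cord blood Lin-RholowCD34+CD38-CD45RA-CD49f+ HSC-enriched cells were cultured per well in serum-free medium with basal cytokines (100 ng/ml SCF, 50 ng/ml THPO, 100 ng/ml FLT3LG) plus one test ligand (recombinant protein or small-molecule inhibitor) at the stated concentration. On day 7, flow cytometry counted CD34+CD133+CD90+ HSC-enriched cells and CD34- mature cells; progenitors (CD34+ cells that are CD133- or CD90-) were calculated as total - HSC-enriched - mature. Values are absolute cell numbers per well, corrected for the 30 µl dead volume and averaged over experiments; they are not normalised to the basal-cytokine control, and they vary strongly between experiments. Concentrations are in ng/ml, except SR1, which is 0.75 µM.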

Assay [2] shares this test system. As to the kind of experiment: number of CD34+CD133+CD90+ HSC-enriched cells per well on day 7 (from 40 seeded cells); higher = more HSC-enriched cell output. The settings on record: culture time: 7 days, basal cytokines: 100 ng/ml SCF + 50 ng/ml THPO + 100 ng/ml FLT3LG. The method, then:
as §1

Setting [3] is: ligand concentration (ng/ml; SR1 in µM as written): 20.
[4] abbreviates: ligand concentration (ng/ml; SR1 in µM as written): 100.
Where [5] appears, read: ligand concentration (ng/ml; SR1 in µM as written): 250.
Setting [6] is: ligand concentration (ng/ml; SR1 in µM as written): 1.
Setting [7] is: ligand concentration (ng/ml; SR1 in µM as written): 10.
Setting [8] is: ligand concentration (ng/ml; SR1 in µM as written): 50.
[9] abbreviates: ligand concentration (ng/ml; SR1 in µM as written): 200.
The mark [10] stands for this setting: ligand concentration (ng/ml; SR1 in µM as written): 0.1.
The mark [11] stands for this setting: ligand concentration (ng/ml; SR1 in µM as written): 5.
Where [12] appears, read: ligand concentration (ng/ml; SR1 in µM as written): 300.
Setting [13] is: ligand concentration (ng/ml; SR1 in µM as written): 150.

In the case of “MNRKARRCLGHLFLSLGMVYLRIGGFSSVVALGASIICNKIPGLAPRQRAICQSRPDAIIVIGEGSQMGLDECQFQFRNGRWNCSALGERTVFGKELKVGSREAAFTYAIIAAGVAHAITAACTQGNLSDCGCDKEKQGQYHRDEGWKWGGCSADIRYGIGFAKVFVDAREIKQNARTLMNLHNNEAGRKILEENMKLECKCHGVSGSCTTKTCWTTLPQFRELGYVLKDKYNEAVHVEPVRASRNKRPTFLKIKKPLSYRKPMDTDLVYIEKSPNYCEEDPVTGSVGTQGRACNKTAPQASGCDLMCCGRGYNTHQYARVWQCNCKFHWCCYVKCNTCSERTEMYTCK”, the number turned out to be 446 ± 300 in assay [1] (setting [3]); 351 ± 220 in assay [1] (setting [4]); 308 ± 210 in assay [1] (setting [5]); 104 ± 64 in assay [2] (setting [3]); 97.5 ± 66 in assay [2] (setting [4]); 98.8 ± 70 in assay [2] (setting [5]).

In the case of “MPLLWLRGFLLASCWIIVRSSPTPGSEGHSAAPDCPSCALAALPKDVPNSQPEMVEAVKKHILNMLHLKKRPDVTQPVPKAALLNAIRKLHVGKVGENGYVEIEDDIGRRAEMNELMEQTSEIITFAESGTARKTLHFEISKEGSDLSVVERAEVWLFLKVPKANRTRTKVTIRLFQQQKHPQGSLDTGEEAEEVGLKGERSELLLSEKVVDARKSTWHVFPVSSSIQRLLDQGKSSLDVRIACEQCQESGASLVLLGKKKKKEEEGEGKKKGGGEGGAGADEEKEQSHRPFLMLQARQSEDHPHRRRRRGLECDGKVNICCKKQFFVSFKDIGWNDWIIAPSGYHANYCEGECPSHIAGTSGSSLSFHSTVINHYRMRGHSPFANLKSCCVPTKLRPMSMLYYDDGQNIIKKDIQNMIVEECGCS”, the number in assay [1] (setting [6]) worked out at 300 ± 250; in assay [1] (setting [7]), 449 ± 140; in assay [1] (setting [4]), 325 ± 170; in assay [2] (setting [6]), 97.6 ± 73; in assay [2] (setting [7]), 65 ± 33; in assay [2] (setting [4]), 72.5 ± 38.

For the sequence “MQHRGFLLLTLLALLALTSAVAKKKDKVKKGGPGSECAEWAWGPCTPSSKDCGVGFREGTCGAQTQRIRCRVPCNWKKEFGADCKYKFENWGACDGGTGTKVRQGTLKKARYNAQCQETIRVTKPCTPKTKAKAKAKKGKGKD”, the number in assay [1] (setting [6]) turned out to be 272 ± 140; in assay [1] (setting [8]) it was 751 ± 720; in assay [1] (setting [9]) it was 332 ± 240; in assay [2] (setting [6]), 152 ± 100; in assay [2] (setting [8]) it was 138 ± 77; in assay [2] (setting [9]), 136 ± 80.

On to “MSERKEGRGKGKGKKKERGSGKKPESAAGSQSPALPPRLKEMKSQESAAGSKLVLRCETSSEYSSLRFKWFKNGNELNRKNKPQNIKIQKKPGKSELRINKASLADSGEYMCKVISKLGNDSASANITIVESNEIITGMPASTEGAYVSSESPIRISVSTEGANTSSSTSTSTTGTSHLVKCAEKEKTFCVNGGECFMVKDLSNPSRYLCKCQPGFTGARCTENVPMKVQNQEKAEELYQKRVLTITGICIALLVVGIMCVVAYCKTKKQRKKLHDRLRQSLRSERNNMMNIANGPHHPNPPPENVQLVNQYVSKNVISSEHIVEREAETSFSTSHYTSTAHHSTTVTQTPSHSWSNGHTESILSESHSVIVMSSVENSRHSSPTGGPRGRLNGTGGPRECNSFLRHARETPDSYRDSPHSERYVSAMTTPARMSPVDFHTPSSPKSPPSEMSPPVSSMTVSMPSMAVSPFMEEERPLLLVTPPRLREKKFDHHPQQFSSFHHNPAHDSNSLPASPLRIVEDEEYETTQEYEPAQEPVKKLANSRRAKRTKPNGHIANRLEVDSNTSSQSSNSESETEDERVGEDTPFLGIQNPLAASLEATPAFRLADSRTNPAGRFSTQEEIQARLSSVIANQDPIAV”, for which the number in assay [1] (setting [10]) amounted to 282 ± 210; in assay [1] (setting [11]), 267 ± 180; in assay [1] (setting [4]) it was 226 ± 56; in assay [2] (setting [10]), 146 ± 59; in assay [2] (setting [11]), 144 ± 53; in assay [2] (setting [4]), 138 ± 78.

For the sequence “MSPRSCLRSLRLLVFAVFSAAASNWLYLAKLSSVGSISEEETCEKLKGLIQRQVQMCKRNLEVMDSVRRGAQLAIEECQYQFRNRRWNCSTLDSLPVFGKVVTQGTREAAFVYAISSAGVAFAVTRACSSGELEKCGCDRTVHGVSPQGFQWSGCSDNIAYGVAFSQSFVDVRERSKGASSSRALMNLHNNEAGRKAILTHMRVECKCHGVSGSCEVKTCWRAVPPFRQVGHALKEKFDGATEVEPRRVGSSRALVPRNAQFKPHTDEDLVYLEPSPDFCEQDMRSGVLGTRGRTCNKTSKAIDGCELLCCGRGFHTAQVELAERCSCKFHWCCFVKCRQCQRLVELHTCR”, the number was determined as 911 ± 580 in assay [1] (setting [11]); 829 ± 470 in assay [1] (setting [4]); 1010 ± 600 in assay [1] (setting [12]); 151 ± 30 in assay [2] (setting [11]); 186 ± 57 in assay [2] (setting [4]); 168 ± 81 in assay [2] (setting [12]).

“MSRLPVLLLLQLLVRPGLQAPMTQTTPLKTSWVNCSNMIDEIITHLKQPPLPLLDFNNLNGEDQDILMENNLRRPNLEAFNRAVKSLQNASAIESILKNLLPCLPLATAAPTRHPIHIKDGDWNEFRRKLTFYLKTLENAQAQQTTLSLAIF”: the number is 1350 ± 400 in assay [1] (setting [6]); 2510 ± 1100 in assay [1] (setting [7]); 3050 ± 1200 in assay [1] (setting [4]); 157 ± 160 in assay [2] (setting [6]); 219 ± 220 in assay [2] (setting [7]); 139 ± 130 in assay [2] (setting [4]).

As for “MTDRQTDTAPSPSYHLLPGRRRTVDAAASRGQGPEPAPGGGVEGVGARGVALKLFVQLLGCSRFGGAVVRAGEAEPSGAARSASSGREEPQPEEGEEEEEKEEERGPQWRLGARKPGSWTGEAAVCADSAPAARAPQALARASGRGGRVARRGAEESGPPHSPSRRGSASRAGPGRASETMNFLLSWVHWSLALLLYLHHAKWSQAAPMAEGGGQNHHEVVKFMDVYQRSYCHPIETLVDIFQEYPDEIEYIFKPSCVPLMRCGGCCNDEGLECVPTEESNITMQIMRIKPHQGQHIGEMSFLQHNKCECRPKKDRARQEKKSVRGKGKGQKRKRKKSRYKSWSVPCGPCSERRKHLFVQDPQTCKCSCKNTDSRCKARQLELNERTCRCDKPRR”, the number in assay [1] (setting [6]) turned out to be 314 ± 230; in assay [1] (setting [8]), 387 ± 360; in assay [1] (setting [13]) it was 294 ± 200; in assay [2] (setting [6]), 93 ± 57; in assay [2] (setting [8]), 106 ± 56; in assay [2] (setting [13]), 95 ± 73.

On to “MTILFLTMVISYFGCMKAAPMKEANIRGQGGLAYPGVRTHGTLESVNGPKAGSRGLTSLADTFEHVIEELLDEDQKVRPNEENNKDADLYTSRVMLSSQVPLEPPLLFLLEEYKNYLDAANMSMRVRRHSDPARRGELSVCDSISEWVTAADKKTAVDMSGGTVTVLEKVPVSKGQLKQYFYETKCNPMGYTKEGCRGIDKRHWNSQCRTTQSYVRALTMDSKKRIGWRFIRIDTSCVCTLTIKRGR”, for which the number in assay [1] (setting [6]) worked out at 242 ± 160; in assay [1] (setting [8]), 442 ± 370; in assay [1] (setting [4]), 425 ± 300; in assay [2] (setting [6]), 100 ± 37; in assay [2] (setting [8]), 128 ± 31; in assay [2] (setting [4]), 112 ± 44.

Regarding “MTPPERLFLPRVCGTTLHLLLLGLLLVLLPGAQGLPGVGLTPSAAQTARQHPKMHLAHSTLKPAAHLIGDPSKQNSLLWRANTDRAFLQDGFSLSNNSLLVPTSGIYFVYSQVVFSGKAYSPKATSSPLYLAHEVQLFSSQYPFHVPLLSSQKMVYPGLQEPWLHSMYHGAAFQLTQGDQLSTHTDGIPHLVLSPSTVFFGAFAL”, the number in assay [1] (setting [6]) was determined as 318 ± 260; in assay [1] (setting [8]) it was 303 ± 130; in assay [1] (setting [9]) it was 326 ± 120; in assay [2] (setting [6]), 63.3 ± 44; in assay [2] (setting [8]) it was 14.6 ± 8.5; in assay [2] (setting [9]) it was 25.3 ± 25.

Consider “MTVFLSFAFLAAILTHIGCSNQRRSPENSGRRYNRIQHGQCAYTFILPEHDGNCRESTTDQYNTNALQRDAPHVEPDFSSQKLQHLEHVMENYTQWLQKLENYIVENMKSEMAQIQQNAVQNHTATMLEIGTSLLSQTAEQTRKLTDVETQVLNQTSRLEIQLLENSLSTYKLEKQLLQQTNEILKIHEKNSLLEHKILEMEGKHKEELDTLKEEKENLQGLVTRQTYIIQELEKQLNRATTNNSVLQKQQLELMDTVHNLVNLCTKEGVLLKGGKREEEKPFRDCADVYQAGFNKSGIYTIYINNMPEPKKVFCNMDVNGGGWTVIQHREDGSLDFQRGWKEYKMGFGNPSGEYWLGNEFIFAITSQRQYMLRIELMDWEGNRAYSQYDRFHIGNEKQNYRLYLKGHTGTAGKQSSLILHGADFSTKDADNDNCMCKCALMLTGGWWFDACGPSNLNGMFYTAGQNHGKLNGIKWHYFKGPSYSLRSTTMMIRPLDF”, for which the number in assay [1] (setting [6]) was 448 ± 320; in assay [1] (setting [7]), 482 ± 360; in assay [1] (setting [4]), 560 ± 550; in assay [2] (setting [6]), 133 ± 60; in assay [2] (setting [7]), 135 ± 22; in assay [2] (setting [4]), 135 ± 29.
